This assay deals with L1210 leukemia ip in BDF1 mice, survival T/C. Kind of assay: NCI In Vivo Anticancer Drug Screen. Data for tumor model L1210 Leukemia (intraperitoneal) in B6D2F1 (BDF1) mice. As to conditions: T/C endpoint: mean survival time, higher T/C = longer survival.
Setting [1] is: dose: 300.0 mg/kg/injection, schedule: Q01DX001 (ip), vehicle: carboxymethylcellulose (CMC).
Setting [2] is: dose: 200.0 mg/kg/injection, schedule: Q01DX009 (ip), vehicle: Klucel (hydroxypropylcellulose) (HPC).
Setting [3] is: dose: 400.0 mg/kg/injection, schedule: Q01DX009 (ip), vehicle: Klucel (hydroxypropylcellulose) (HPC).
Where [4] appears, read: dose: 100.0 mg/kg/injection, schedule: Q01DX009 (ip), vehicle: Klucel (hydroxypropylcellulose) (HPC).
[5] abbreviates: dose: 400.0 mg/kg/injection, schedule: Q01DX009 (ip), vehicle: saline with Tween-80.
[6] abbreviates: dose: 50.0 mg/kg/injection, schedule: Q01DX009 (ip), vehicle: saline with Tween-80.
Where [7] appears, read: dose: 400.0 mg/kg/injection, schedule: Q04DX003 (ip), vehicle: saline with Tween-80.
Where [8] appears, read: dose: 200.0 mg/kg/injection, schedule: Q01DX009 (ip), vehicle: saline with Tween-80.
[9] abbreviates: dose: 12.5 mg/kg/injection, schedule: Q01DX009 (ip), vehicle: saline.

This passage reports survivor count and T/C results from PubChem BioAssay AID248 (DTP/NCI, 2004).

Structures are written as SMILES. The list does not hold the whole screen: it is rich in T/C values a quarter to a half above the control, in often repeated tests (any T/C) and in doses without a T/C. Further doses and runs are listed elsewhere. T/C is the treated group as % of the vehicle group. Some doses have a count of surviving animals in place of a T/C: the source holds a T/C of zero for them, seemingly a mark for toxic or unscored doses. Some doses without a T/C left all or most animals alive at the check, yet need not have been tolerated: survival well below the control is almost never listed, so the zero probably covers shortened survival too. Survivors were counted at the toxicity check, usually on the fifth day, unless a day is given; later deaths do not show. Schedule codes are those of the source, taken here to give the interval after Q, in days (D) or hours (H), and the number of doses after X. Some entries were tested several times; their values stand side by side, smallest first. Some schedule codes hold Z or #, which are not explained here. Where survival is the endpoint, this PubChem deposit counts one and a half times the control or more as active, and values a quarter to a half above the control carry no call in these data; other NCI protocols may use other cut-offs. Some T/C values are followed by the survivors on the day toxicity was checked, most often the fifth; where none is given, no animal had died by that day.

Consider `COC(=O)C(Br)[P+](c1ccccc1)(c1ccccc1)c1ccccc1` (configuration not stated), for which the survivor count is, setting by setting: (dose: 75.0 mg/kg/injection, schedule: Q01DX001 (ip), vehicle: carboxymethylcellulose (CMC)) 0 of 6; (dose: 150.0 mg/kg/injection, schedule: Q01DX001 (ip), vehicle: carboxymethylcellulose (CMC)) 0 of 6; under setting [1], 0 of 6.
As to `C#CC1(NC(=S)NC(=O)c2ccccc2)CCCCC1`, the survivor count is listed as 0 of 6 under setting [2] and 0 of 6 under setting [3].
Take `OC(c1ccccc1)C(O)c1ccccc1` (configuration not stated): the survivor count is, setting by setting: under setting [4], 3 of 6; under setting [2], 2 of 6; under setting [3], 0 of 6.
For the molecule `C/C(=N\NC(N)=S)C1OCCc2ccccc21` (configuration not stated), the survivor count (dose: 40.0 mg/kg/injection, schedule: Q01DX001 (ip), vehicle: saline) is recorded as 1 of 6 and the survivor count (dose: 80.0 mg/kg/injection, schedule: Q01DX001 (ip), vehicle: saline) is listed as 0 of 6.
With `CCN(CC)CCNCCN`, the survivor count is recorded as 2 of 6 (dose: 100.0 mg/kg/injection, schedule: Q01DX009 (ip), vehicle: saline); 0 of 6 (dose: 200.0 mg/kg/injection, schedule: Q01DX009 (ip), vehicle: saline); 0 of 6 (dose: 400.0 mg/kg/injection, schedule: Q04DX003 (ip), vehicle: saline).
For the molecule `CCCCCCCc1c(C)[nH]c2ccccc2c1=O`, the survivor count under setting [2] is on record as 6 of 6 and the survivor count under setting [3] is listed as 1 of 6.
For `CCOC(=O)/C=C/SCCCC(=O)O`, the survivor count under setting [5] was 3 of 6.
`FC1(F)SC2CCCC2C1(F)F` (configuration not stated): the survivor count is, setting by setting: (dose: 25.0 mg/kg/injection, schedule: Q01DX009 (ip), vehicle: saline with Tween-80) 0 of 6; under setting [6], 0 of 6; (dose: 100.0 mg/kg/injection, schedule: Q04DX003 (ip), vehicle: saline with Tween-80) 6 of 6; (dose: 200.0 mg/kg/injection, schedule: Q04DX003 (ip), vehicle: saline with Tween-80) 0 of 6; under setting [7], 0 of 6.
Regarding `CN=C(N)c1ccc(NC(=O)/C=C\c2ccc(/C=C/C(=O)Nc3ccc(C(N)=NC)cc3)cc2)cc1`, the T/C by setting is: (dose: 30.0 mg/kg/injection, schedule: Q01DX Z (ip), vehicle: saline) 126 % of control; (dose: 60.0 mg/kg/injection, schedule: Q01DX Z (ip), vehicle: saline) 147 % of control.
For `CCCC(=O)c1cc(O)c(O)cc1O`, the survivor count reads like this: (dose: 100.0 mg/kg/injection, schedule: Q01DX009 (ip), vehicle: saline with Tween-80) 3 of 6; under setting [8], 0 of 6; under setting [7], 3 of 6.
Take `CCCCNc1ncnc2c1ncn2C1OC(CO)C(O)C1O` (configuration not stated): the T/C (dose: 100.0 mg/kg/injection, schedule: Q01DX005 (ip), vehicle: saline) was 125 % of control [3 of 4 alive]. Further, the survivor count (dose: 200.0 mg/kg/injection, schedule: Q01DX005 (ip), vehicle: saline) is given as 0 of 4.
On to `CCCCCC(C1=NC(C)(C)CC(C)O1)c1ccccc1` (configuration not stated), for which, under “dose: 400.0 mg/kg/injection, schedule: Q01DX009 (ip), vehicle: saline”, the survivor count is listed as 6 of 6.
With `CC(C)/C=C/C1(C(C)C)C(=O)NC(=O)NC1=O`, under setting [1], the survivor count is 2 of 6.
Regarding `Cc1ncnc(NN)c1N`, the survivor count (dose: 125.0 mg/kg/injection, schedule: Q01DX Z (ip), vehicle: methylcellulose (MC)) is reported as 0 of 6.
As to `CC(/C=N/NC(N)=S)Cc1ccc(C(C)C)cc1` (configuration not stated), the survivor count by setting is: (dose: 25.0 mg/kg/injection, schedule: Q04DX003 (ip), vehicle: saline with Tween-80) 1 of 6; (dose: 40.0 mg/kg/injection, schedule: Q01DX009 (ip), vehicle: alcohol) 5 of 6; (dose: 50.0 mg/kg/injection, schedule: Q04DX003 (ip), vehicle: saline with Tween-80) 0 of 6.
As for `CC(C)N(C(=O)/C=C/C(=O)N(C(C)C)C(C)C)C(C)C`, under setting [7], the survivor count is recorded as 1 of 3.
For the molecule `S=C(Nc1ccccc1)Nc1ccc(Cl)c(Cl)c1`, the survivor count reads like this: under setting [6], 6 of 6; under setting [8], 6 of 6; under setting [5], 0 of 6.
With `O=C(CCCN1CCN(c2ccccn2)CC1)c1ccc(F)cc1`, the T/C under setting [4] is 125 % of control [4 of 6 alive]. Moreover, the survivor count under setting [2] is 0 of 6 and the survivor count (dose: 400.0 mg/kg/injection, schedule: Q04DX003 (ip), vehicle: Klucel (hydroxypropylcellulose) (HPC)) is given as 2 of 4.
In the case of `CCCSc1ccc(N2C(N)=NC(N)=NC2(C)C)cc1`, the survivor count is 0 of 6 (dose: 75.0 mg/kg/injection, schedule: Q01DX009 (ip), vehicle: saline with Tween-80); 1 of 6 (dose: 100.0 mg/kg/injection, schedule: Q01DX001 (ip), vehicle: saline); 1 of 6 (dose: 115.0 mg/kg/injection, schedule: Q04DX003 (ip), vehicle: saline); 0 of 6 (dose: 170.0 mg/kg/injection, schedule: Q04DX003 (ip), vehicle: saline); 0 of 6 (dose: 200.0 mg/kg/injection, schedule: Q01DX001 (ip), vehicle: saline); 0 of 6 (dose: 400.0 mg/kg/injection, schedule: Q01DX001 (ip), vehicle: saline).
Turning to `CSc1ccc(NC(=O)N(CCCl)N=O)cc1`, the T/C was 147 % of control [5 of 6 alive] (dose: 1.0 mg/kg/injection, schedule: Q01DX009 (ip), vehicle: other); 128 % of control (dose: 3.0 mg/kg/injection, schedule: Q01DX001 (ip), vehicle: carboxymethylcellulose (CMC)); 146 % of control (dose: 5.5 mg/kg/injection, schedule: Q01DX001 (ip), vehicle: carboxymethylcellulose (CMC)); 130 % of control (dose: 6.0 mg/kg/injection, schedule: Q01DX009 (ip), vehicle: carboxymethylcellulose (CMC)); 142 % of control (dose: 12.5 mg/kg/injection, schedule: Q01DX001 (ip), vehicle: carboxymethylcellulose (CMC)); 127 % of control (dose: 27.0 mg/kg/injection, schedule: Q01DX001 (ip), vehicle: other). Besides, the survivor count is, setting by setting: (dose: 18.0 mg/kg/injection, schedule: Q01DX009 (ip), vehicle: carboxymethylcellulose (CMC)) 6 of 6; (dose: 36.0 mg/kg/injection, schedule: Q01DX009 (ip), vehicle: carboxymethylcellulose (CMC)) 0 of 6; (dose: 50.0 mg/kg/injection, schedule: Q01DX001 (ip), vehicle: carboxymethylcellulose (CMC)) 2 of 4.
With `CN(C)C(=O)c1cccc([N+](=O)[O-])c1`, the survivor count under setting [7] is given as 6 of 6.
Take `BrCCN1CCCCC1`: the survivor count runs as follows: under setting [9], 3 of 3 and 6 of 6; (dose: 25.0 mg/kg/injection, schedule: Q01DX009 (ip), vehicle: saline) 3 of 6 and 2 of 3; (dose: 50.0 mg/kg/injection, schedule: Q01DX001 (ip), vehicle: saline) 3 of 6; (dose: 50.0 mg/kg/injection, schedule: Q01DX009 (ip), vehicle: saline) 0 of 3 and 0 of 6; (dose: 50.0 mg/kg/injection, schedule: Q04DX002 (ip), vehicle: saline) 3 of 3; (dose: 50.0 mg/kg/injection, schedule: Q04DX003 (ip), vehicle: saline) 2 of 6. In addition, the survivor count (dose: 100.0 mg/kg/injection, schedule: Q04DX002 (ip), vehicle: saline) is 0 of 3 and 0 of 6; the survivor count (dose: 200.0 mg/kg/injection, schedule: Q04DX002 (ip), vehicle: saline) was 0 of 3 and 0 of 6; the survivor count (dose: 400.0 mg/kg/injection, schedule: Q04DX002 (ip), vehicle: saline) is 0 of 3 and 0 of 6.
As to `COC(=O)[CH](C[N+](=O)[O-])[Hg][Cl]` (configuration not stated), under setting [9], the survivor count is reported as 3 of 6.
